Data reported in publication PMC11057878.
Results are given in words; binding and its absence hold for the method and conditions named. In cells and extracts the contact can be indirect. Binding calls can cover weak binding; strength is not graded here.

Tests used:
Assay in all cases: co-IP; HEK293T cells co-transfected with Skor and Lhx expression plasmids (pCS2+), lysed 24 h later in 10 mM Tris pH 7.4, 150 mM NaCl, 0.5% NP40; antibody (anti-HA, anti-Myc or anti-Flag) on Dynabeads protein G, 4°C for 2 h, five washes with lysis buffer; immunoblot
[1] = target: T1, Lhx1b (zebrafish) (UniProt O13106)
T1 sequence: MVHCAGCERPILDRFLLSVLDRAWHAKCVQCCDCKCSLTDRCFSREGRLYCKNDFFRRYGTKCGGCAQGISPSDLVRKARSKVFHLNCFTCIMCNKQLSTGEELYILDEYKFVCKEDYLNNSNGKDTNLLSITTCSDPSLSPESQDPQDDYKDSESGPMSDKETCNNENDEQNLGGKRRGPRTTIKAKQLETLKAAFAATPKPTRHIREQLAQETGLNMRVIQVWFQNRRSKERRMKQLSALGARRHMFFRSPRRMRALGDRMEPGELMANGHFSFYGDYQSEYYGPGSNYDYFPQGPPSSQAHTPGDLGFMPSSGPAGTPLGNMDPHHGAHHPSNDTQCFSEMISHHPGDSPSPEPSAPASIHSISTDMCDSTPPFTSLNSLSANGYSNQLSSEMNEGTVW

[2] = target: T2, Lhx5 (zebrafish) (UniProt P52889)
T2 sequence: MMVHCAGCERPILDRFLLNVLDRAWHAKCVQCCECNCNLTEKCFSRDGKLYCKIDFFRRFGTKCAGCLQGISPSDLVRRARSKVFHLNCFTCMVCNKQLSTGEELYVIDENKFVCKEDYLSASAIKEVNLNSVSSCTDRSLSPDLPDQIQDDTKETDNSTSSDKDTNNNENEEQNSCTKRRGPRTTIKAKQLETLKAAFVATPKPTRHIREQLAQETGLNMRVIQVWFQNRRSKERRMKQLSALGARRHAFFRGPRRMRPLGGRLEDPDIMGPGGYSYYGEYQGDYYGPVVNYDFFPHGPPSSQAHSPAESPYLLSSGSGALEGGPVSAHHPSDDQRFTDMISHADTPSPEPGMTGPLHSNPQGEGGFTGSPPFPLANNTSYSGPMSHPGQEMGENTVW

[3] = target: T3, Lhx1a (zebrafish) (UniProt Q90476)
T3 sequence: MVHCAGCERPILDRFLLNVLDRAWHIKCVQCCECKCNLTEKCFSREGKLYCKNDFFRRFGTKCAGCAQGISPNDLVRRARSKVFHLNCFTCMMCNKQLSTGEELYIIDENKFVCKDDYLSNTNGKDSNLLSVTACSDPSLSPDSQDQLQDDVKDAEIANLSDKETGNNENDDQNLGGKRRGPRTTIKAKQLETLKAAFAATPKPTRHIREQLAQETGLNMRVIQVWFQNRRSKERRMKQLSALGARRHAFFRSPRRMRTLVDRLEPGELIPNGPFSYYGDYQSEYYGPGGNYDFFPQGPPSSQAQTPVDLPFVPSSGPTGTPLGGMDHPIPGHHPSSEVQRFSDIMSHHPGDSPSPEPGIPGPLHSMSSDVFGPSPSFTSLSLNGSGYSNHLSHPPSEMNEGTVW

Measured: binding

Skor2 (zebrafish)
binds: all assays above
